From the supplement of paper PMC10735217 come the findings set out here.

The experiment relates to HEK293A TEAD-LUC reporter. The experiment is described as follows: TEAD-luciferase reporter activity (YAP activation), robust Z score vs plate; higher = stronger YAP/TEAD activation. To be noted: 24 h. Background: In a reporter assay the amount or activity of a reporter protein is the signal.

Each structure is given as a SMILES string. The list shows a part of the results. This data set is noisy: repeats of one test often differ as much as different tests do.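 The human kidney-derived cells carry a stably integrated construct of eight TEAD-binding elements driving luciferase, read by luminescence in a drug-repurposing library screen. A compound counts as a hit when its signal is more than five robust Z scores above the plate mean.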

Consider `Nc1nccc2c1ncn2[C@@H]1C=C(CO)[C@@H](O)[C@H]1O`, for which the TEAD-luciferase reporter activity reads like this: (compound concentration: 200 nM) inactive: -0.581; (compound concentration: 2 uM) inactive: 2.25; (compound concentration: 10 uM) inactive: 2.59.

As for `COc1ccc2nc(NC(=O)Nc3ccccc3)sc2c1` [Frentizol], the TEAD-luciferase reporter activity runs as follows: (compound concentration: 200 nM) inactive: 2.35; (compound concentration: 2 uM) inactive: -1.22; (compound concentration: 10 uM) inactive: -0.0107.

Regarding `Oc1ccc(C=Cc2cc(O)cc(O)c2)cc1` [resveratrol, Royalmount], the TEAD-luciferase reporter activity reads like this: (compound concentration: 200 nM) inactive: -0.968; (compound concentration: 2 uM) inactive: -1.02; (compound concentration: 10 uM) inactive: -1.03.

As for `CO/N=C(\C(=O)N[C@@H]1C(=O)N2C(C(=O)O)=C(CSC(=O)c3ccco3)CS[C@H]12)c1csc(N)n1` [Ceftiofur], the TEAD-luciferase reporter activity is inactive: -0.565 (compound concentration: 200 nM), inactive: -0.168 (compound concentration: 2 uM) and inactive: 1.03 (compound concentration: 10 uM).

In the case of `c1ccc(CCCC(Oc2ccccc2OCc2ccccc2)C2=NCCN2)cc1` (configuration not stated), the TEAD-luciferase reporter activity is, setting by setting: (compound concentration: 200 nM) inactive: -1.41; (compound concentration: 2 uM) inactive: -1.11; (compound concentration: 10 uM) inactive: 0.298.

As for `N=C(N)NCCC[C@H](NC(=O)[C@@H]1CCCN1C(=O)[C@@H]1CSSC[C@H](N)C(=O)N[C@@H](Cc2ccc(O)cc2)C(=O)N[C@@H](Cc2ccccc2)C(=O)N[C@@H](CCC(N)=O)C(=O)N[C@@H](CC(N)=O)C(=O)N1)C(=O)O`, the TEAD-luciferase reporter activity was inactive: -0.56 (compound concentration: 200 nM), inactive: 0.283 (compound concentration: 2 uM) and inactive: -0.549 (compound concentration: 10 uM).

Take `CNC(=O)c1cccc(-c2ccc3c(N4CCOC[C@@H]4C)nc(N4CCOC[C@@H]4C)nc3n2)c1` [Vistusertib]: the TEAD-luciferase reporter activity is, setting by setting: (compound concentration: 200 nM) inactive: -0.584; (compound concentration: 2 uM) inactive: -1.37; (compound concentration: 10 uM) inactive: -0.48.

With `CC[C@H](C(=O)N1CCCC[C@H]1C(=O)O[C@H](CCc1ccc(OC)c(OC)c1)c1cccc(OCC(=O)NCCNC(=O)COc2cccc([C@@H](CCc3ccc(OC)c(OC)c3)OC(=O)[C@@H]3CCCCN3C(=O)[C@@H](CC)c3cc(OC)c(OC)c(OC)c3)c2)c1)c1cc(OC)c(OC)c(OC)c1` [Rimiducid], the TEAD-luciferase reporter activity is inactive: -2.03 (compound concentration: 200 nM), inactive: -1.56 (compound concentration: 2 uM) and inactive: 0.754 (compound concentration: 10 uM).

In the case of `Cc1cc2c(OCC(O)CNC(C)C)cccc2[nH]1` (configuration not stated) [mepindolol], the TEAD-luciferase reporter activity by setting is: (compound concentration: 200 nM) inactive: 1.18; (compound concentration: 2 uM) inactive: 1.03; (compound concentration: 10 uM) inactive: -0.199.

For the molecule `CS(=O)(=O)Nc1ccc(CNc2nc(C(F)(F)F)ccc2-c2cc(Oc3cccc4sc(N)nc34)ncn2)cc1F`, the TEAD-luciferase reporter activity (compound concentration: 200 nM) was inactive: 0.494, the TEAD-luciferase reporter activity (compound concentration: 2 uM) is inactive: -0.0349 and the TEAD-luciferase reporter activity (compound concentration: 10 uM) was inactive: 0.0769.

On to `C[C@@H](Oc1nnc(-c2ccncc2)n1C)c1cc(-c2cccc(Cl)c2)on1`, for which the TEAD-luciferase reporter activity reads like this: (compound concentration: 200 nM) inactive: 0.893; (compound concentration: 2 uM) inactive: -1.52; (compound concentration: 10 uM) inactive: 0.0384.

With `Cn1cc(-c2cc3c(N4CCN(c5ncc([C@@](C)(N)c6ccc(F)cc6)cn5)CC4)ncnn3c2)cn1` [Avapritinib], the TEAD-luciferase reporter activity was inactive: -0.308 (compound concentration: 200 nM), inactive: -2.04 (compound concentration: 2 uM) and inactive: 0.411 (compound concentration: 10 uM).

`COc1ccc2cc(CCC(C)=O)ccc2c1` [nabumetone]: the TEAD-luciferase reporter activity (compound concentration: 2 uM) was inactive: 3.23.

With `COc1ccc2cc(CCC(C)=O)ccc2c1`, the TEAD-luciferase reporter activity runs as follows: (compound concentration: 200 nM) inactive: 0.0736; (compound concentration: 10 uM) inactive: 0.302.

As for `CO[C@@H](Cc1ccc(OCCc2nc(-c3ccccc3)oc2C)c2ccsc12)C(=O)O` [Aleglitazar], the TEAD-luciferase reporter activity reads like this: (compound concentration: 200 nM) inactive: -0.234; (compound concentration: 2 uM) inactive: -0.403; (compound concentration: 10 uM) inactive: -0.485.

`N#Cc1cc2c(OCC(O)CN3CCN(C(c4ccccc4)c4ccccc4)CC3)cccc2[nH]1` (configuration not stated): the TEAD-luciferase reporter activity was inactive: -0.769 (compound concentration: 200 nM), inactive: -0.272 (compound concentration: 2 uM) and active: 6.08 (compound concentration: 10 uM).

For the molecule `Clc1ccccc1C(c1ccccc1)(c1ccccc1)n1ccnc1` [clotrimazole], under “compound concentration: 2 uM”, the TEAD-luciferase reporter activity is inactive: -0.384.

On to `Clc1ccccc1C(c1ccccc1)(c1ccccc1)n1ccnc1`, for which the TEAD-luciferase reporter activity (compound concentration: 200 nM) is inactive: -0.608 and the TEAD-luciferase reporter activity (compound concentration: 10 uM) was inactive: 1.33.

Turning to `CCc1cc(NCc2nc3c(C)ccc(C)c3o2)c(=O)[nH]c1C`, the TEAD-luciferase reporter activity (compound concentration: 200 nM) is inactive: -0.668, the TEAD-luciferase reporter activity (compound concentration: 2 uM) was inactive: -1.4 and the TEAD-luciferase reporter activity (compound concentration: 10 uM) is inactive: 0.325.

For `CCOC(=O)C1(CCCCCCOc2ccc(Cl)cc2)CO1` (configuration not stated) [etomoxir depression therapy], the TEAD-luciferase reporter activity (compound concentration: 2 uM) is inactive: -0.469.

With `CCOC(=O)C1(CCCCCCOc2ccc(Cl)cc2)CO1` (configuration not stated), the TEAD-luciferase reporter activity by setting is: (compound concentration: 200 nM) inactive: -1.44; (compound concentration: 10 uM) inactive: -0.486.

As for `CN(C)CC(=O)O`, the TEAD-luciferase reporter activity (compound concentration: 200 nM) is inactive: -0.371, the TEAD-luciferase reporter activity (compound concentration: 2 uM) is inactive: -1.15 and the TEAD-luciferase reporter activity (compound concentration: 10 uM) is inactive: 0.833.

Take `N=C(Nc1ccccc1)c1cccs1`: the TEAD-luciferase reporter activity reads like this: (compound concentration: 200 nM) inactive: 0.748; (compound concentration: 2 uM) inactive: -1.32; (compound concentration: 10 uM) inactive: 0.419.

Regarding `CCOc1cccc2c1[O][Mn]([O]C(C)=O)[O]c1c(cccc1OCC)/C=N/CC/N=C/2`, the TEAD-luciferase reporter activity was inactive: -0.382 (compound concentration: 200 nM), inactive: 0.0844 (compound concentration: 2 uM) and inactive: 1.27 (compound concentration: 10 uM).

As for `Clc1ccc(N2N=NCC2c2ccncc2)cc1` (configuration not stated), the TEAD-luciferase reporter activity runs as follows: (compound concentration: 200 nM) inactive: -0.956; (compound concentration: 2 uM) inactive: -0.669; (compound concentration: 10 uM) inactive: 0.869.

On to `Nc1ccn([C@@H]2O[C@H](CO)[C@@H](O)[C@H]2O)c(=O)c1`, for which the TEAD-luciferase reporter activity is, setting by setting: (compound concentration: 200 nM) inactive: -0.281; (compound concentration: 2 uM) inactive: -2.69; (compound concentration: 10 uM) inactive: -1.01.

As for `CN1CCN(Cc2ccc(Nc3ncc(Cl)c(Nc4ccccc4S(=O)(=O)N(C)C)n3)cc2)CC1`, the TEAD-luciferase reporter activity runs as follows: (compound concentration: 200 nM) inactive: 0.44; (compound concentration: 2 uM) inactive: -2.22; (compound concentration: 10 uM) inactive: -1.44.
